Measurements taken from PubChem BioAssay AID1487 (National Center for Advancing Translational Sciences (NCATS), 2009).
This is one part of the list. The main result of the screen is listed elsewhere. These columns were measured beside it and carry no call. Compounds called inactive in the main read-out are mostly missing here. The note in brackets gives the kind of curve behind each potency; many fits are weak.

Assay: qHTS Assay for Modulators of Lamin A Splicing
Conditions: HeLa LMNA splicing GFP/RFP minigene ratio, 48 h
How it was run: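 S3 HeLa cells stably expressing lamin A-EGFP splicing minigene plus DsRed2, 600 cells/well, 48 h compound exposure at 37C. Laser-scanning cytometry; analysed as GFP (500-530 nm)/RFP (575-640 nm) total intensity ratio; 0.5% DMSO vehicle.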

[1] = measured here: RFP viability control channel
[2] = measured here: GFP splicing reporter channel

SMILES | AC50 [1] | AC50 [2]
O=C(CS(=O)(=O)c1cn(Cc2ccc(F)cc2)c2ccccc12)N1CCCCC1 | 35.5 µM [rising, single point] | 
O=C(CSCc1ccccc1)N/N=C/c1cc2c(cc1Br)OCO2 | 11.2 µM [rising, partial curve] | 
Cc1ccccc1NC(=O)c1oc2c(c1C)-c1nn(Cc3cccc(Cl)c3)cc1CC2 |  | 3.16 µM [rising, full curve]
O=C(Nc1nc2c(s1)CCCC2)c1cccc(S(=O)(=O)N2CCCc3ccccc32)c1 | 12.6 µM [rising, partial curve] | 11.2 µM [rising, partial curve]
C/C=C1\C2C=C(C)CC1(N)c1ccc(=O)[nH]c1C2 (stereo unspecified) |  | 5.62 µM [falling, full curve, poor fit]
Cc1cc(SCc2cc(=O)n3ccsc3n2)nc2ccccc12 | 35.5 µM [rising, single point] | 
CCN(Cc1ccccc1)c1ccc(/C=N/NC(=S)NC(C)C)cc1 | 11.2 µM [rising, partial curve] | 8.91 µM [rising, partial curve, poor fit]
Cc1[nH]c2ccccc2c1C1=NNC(=Nc2ccc(F)cc2)SC1 | 35.5 µM [falling, single point] | 35.5 µM [falling, single point]
Cc1c(Br)c(=O)oc2c(Br)c(O)ccc12 |  | 1.58 µM [rising, full curve, poor fit]
O=C1N2CCSC2=NC1(Nc1ccccn1)C(F)(F)F (stereo unspecified) | 2.82 µM [falling, full curve] | 
CCCN1C(=O)/C(=N\OCC(=O)Nc2ccc(C(C)C)cc2)c2ccccc21 | 35.5 µM [rising, single point] | 35.5 µM [rising, single point]
Cc1cc(OCCSc2nnc(-c3cccs3)n2C)ccc1Cl | 20 µM [rising, single point] | 
CC(C)CNC(=S)Nc1ccc(Oc2ccccc2)cc1 | 35.5 µM [rising, single point] | 
COc1cc(C(C(=O)NC2CCCCC2)N(Cc2cccs2)C(=O)Cc2c[nH]c3ccccc23)cc(OC)c1OC (stereo unspecified) | 11.2 µM [rising, partial curve, poor fit] | 
Cc1ccc2cc(C3CC(c4ccco4)=NN3S(=O)(=O)c3ccccc3)c(Cl)nc2c1 (stereo unspecified) | 15.8 µM [rising, partial curve, poor fit] | 
CC(C)(C)C(=O)/C=C/c1ccc(Oc2ccccc2)cc1 | 0.00447 µM [falling, full curve, poor fit] | 
O=C(/C=C/c1ccccc1)N1c2ccccc2Sc2ccc(C(F)(F)F)cc21 |  | 35.5 µM [rising, single point]
CCOC(=O)c1ccc(CN(Cc2ccc(Br)cc2)S(=O)(=O)c2cccc(Cl)c2C)cc1 |  | 0.355 µM [falling, partial curve, poor fit]
CCOC(=O)N1CCN(C(=O)CN(c2ccc(Oc3ccccc3)cc2)S(C)(=O)=O)CC1 | 35.5 µM [rising, single point] | 

Copied from the list:
Entry for O=C(Nc1nc2c(s1)CCCC2)c1cccc(S(=O)(=O)N2CCCc3ccccc32)c1 under AC50 [1]: 12.6 µM [rising, partial curve]
Entry for Cc1cc(OCCSc2nnc(-c3cccs3)n2C)ccc1Cl under AC50 [1]: 20 µM [rising, single point]

The list goes on.

SMILES | AC50 [1] | AC50 [2]
CCOC(=O)Nc1nc(-c2ccccc2)c(C(=O)c2ccccc2)s1 | 12.6 µM [falling, single point] | 15.8 µM [falling, single point]
C/C(=N\N=C(/N)SC1CC(=O)N(c2ccc(Br)cc2)C1=O)c1cccs1 (stereo unspecified) | 11.2 µM [falling, single point] | 
O=c1cc(-c2ccc(F)cc2)nc(SCc2nc(-c3ccc(Cl)cc3)no2)[nH]1 | 0.355 µM [rising, partial curve, poor fit] | 0.316 µM [rising, partial curve, poor fit]
COc1ccc(NC(=O)Nc2ccc(C)cc2OC(F)F)cc1OC | 14.1 µM [rising, single point] | 
N#Cc1c(NC(=O)CSC2=NCCS2)sc2c1CCCC2 | 14.1 µM [rising, partial curve] | 10 µM [rising, partial curve]
Cc1ccc(-c2ccc(/C=C3\C(=O)ON=C3c3ccccc3)o2)c([N+](=O)[O-])c1 | 14.1 µM [falling, single point] | 0.631 µM [falling, single point]
COCCN(Cc1cc2cc(C)ccc2n2nnnc12)C(=S)Nc1ccc(C)cc1 |  | 0.501 µM [rising, partial curve, poor fit]
O=C(Cn1c(=O)nc(-c2ccccc2)c2ccccc21)NCc1ccccc1Cl |  | 35.5 µM [falling, single point]
Cc1nc(Nc2ccc(Cl)cc2)c2nnn(Cc3ccccc3)c2n1 | 1.26 µM [falling, partial curve, poor fit] | 
Cn1c(O)c(N=NC(=O)c2cccc(S(=O)(=O)N3CCCCC3)c2)c2ccccc21 | 11.2 µM [rising, single point] | 
CC(=O)c1ccc(NC(=O)CSc2nc(=O)n(Cc3ccncc3)c3c2CCC3)cc1 |  | 0.0141 µM [falling, full curve, poor fit]
CCN(Cc1ccncc1)C(=O)CCc1nnc(CCc2ccc(OC)cc2)o1 | 35.5 µM [falling, single point] | 
CC(=O)c1ccc(N2CCN(C(=O)Nc3ccc(F)cc3)CC2)cc1 |  | 2.82 µM [rising, partial curve, poor fit]
Cc1ccccc1C(=O)O/N=C/c1c(N2CCOCC2)n(C)c2ccccc12 | 5.62 µM [falling, full curve] | 5.01 µM [falling, partial curve]
O=S(=O)(c1ccc(F)c(F)c1F)N1CCN(C(=S)NCc2ccccc2)CC1 | 0.126 µM [rising, full curve, poor fit] | 
c1ccc2c(c1)CCN(c1nc3cc4c(cc3s1)OCCO4)C2 | 17.8 µM [rising, partial curve] | 15.8 µM [rising, single point]
CCCC(=O)N1CCN(c2ccc(NC(=O)c3cc4ccccc4o3)cc2Cl)CC1 | 14.1 µM [falling, single point] | 3.16 µM [falling, single point]
Clc1ccc(OCCCCCN2CCCC2)c(Br)c1 | 0.0126 µM [falling, full curve, poor fit] | 
COc1cc(NC(=O)CCC2CCCC2)cc(-n2cnnn2)c1 | 17.8 µM [rising, single point] | 

SMILES | AC50 [1] | AC50 [2]
CC(C)C(c1nnnn1Cc1ccccc1)N1CCC(C(N)=O)CC1 (stereo unspecified) | 0.0126 µM [falling, full curve, poor fit] | 0.398 µM [falling, full curve, poor fit]
COc1ccc(C2=NN(C(=O)CSc3nc4ncc(Cl)cc4[nH]3)C(c3ccco3)C2)cc1 (stereo unspecified) |  | 0.0316 µM [falling, full curve, poor fit]
COc1ccc(OC)c(NC(=O)C2CCCCC2)c1 |  | 35.5 µM [rising, single point]
OCC1(Cc2ccccc2)CCN(Cc2ccccn2)CC1 | 7.08 µM [falling, single point] | 
O=S(=O)(c1cccc(-c2csc(-c3ccccc3)n2)c1)N1CCOCC1 | 14.1 µM [rising, single point] | 
CC(C)(C)n1nc2c(c1NC(=O)Cc1ccccc1)CS(=O)(=O)C2 |  | 0.01 µM [rising, full curve, poor fit]
O=C(Nc1ccc(N2CCOCC2)c(Cl)c1)c1ccc(Cl)cc1 | 10 µM [rising, partial curve] | 11.2 µM [rising, partial curve]
CCOCCCn1cc(C(=O)c2cc(Br)ccc2O)cc(C#N)c1=O | 7.94 µM [rising, partial curve] | 5.62 µM [rising, full curve]
CCOC(=O)C1=C(C)NC(=O)NC1c1ccc(-c2ccccc2F)o1 (stereo unspecified) |  | 35.5 µM [rising, single point]
CC(C)NC(=O)c1onc(CSc2cccc3ccccc23)c1C(=O)O |  | 15.8 µM [falling, single point]
CC1CCC2C(=O)N(c3ccc(Cc4ccncc4)cc3)C(=O)C2C1 (stereo unspecified) | 10 µM [falling, partial curve] | 10 µM [falling, partial curve]
Cc1onc(-c2ccccc2)c1C(=O)NC(=S)NNC(=O)c1ccccc1O | 0.794 µM [rising, full curve] | 0.562 µM [rising, full curve]
CC1CCCN(c2nc3ccccc3nc2C(C#N)S(=O)(=O)c2cccs2)C1 (stereo unspecified) | 31.6 µM [rising, single point] | 17.8 µM [rising, single point]
O=C(N/N=C/C=C/c1ccco1)c1cccs1 | 1.58 µM [falling, partial curve] | 
N#Cc1ccccc1N=C1CCCN1Cc1ccccc1 |  | 0.00447 µM [rising, full curve, poor fit]
Cc1ccc(S(=O)(=O)Nc2ccc(SC(F)F)cc2)c(C)c1 | 12.6 µM [rising, partial curve] | 14.1 µM [rising, partial curve, poor fit]
Cc1cccn2c(=O)c(C(=O)NCc3cccc(F)c3)cnc12 |  | 4.47 µM [rising, full curve, poor fit]
Cn1c(SCc2ccc(C#N)cc2Cl)nc2ccccc21 | 14.1 µM [rising, single point] | 11.2 µM [rising, partial curve]
N#C/C(=N\Nc1ccc(S(=O)(=O)N2CCOCC2)cc1)C(N)=S |  | 35.5 µM [falling, single point]
